Test results: paper PMC5041083
These are yes or no findings as the source states them, for the method shown. Binding seen in cells or lysates may run through a third protein. Here binding means that the protein was enriched with, or labelled near, the bait; the list need not be complete. Sequences can lack the tags named with a protein.

The chains behind the UniProt entries cited, without tags or fusion partners.
UniProt P18583: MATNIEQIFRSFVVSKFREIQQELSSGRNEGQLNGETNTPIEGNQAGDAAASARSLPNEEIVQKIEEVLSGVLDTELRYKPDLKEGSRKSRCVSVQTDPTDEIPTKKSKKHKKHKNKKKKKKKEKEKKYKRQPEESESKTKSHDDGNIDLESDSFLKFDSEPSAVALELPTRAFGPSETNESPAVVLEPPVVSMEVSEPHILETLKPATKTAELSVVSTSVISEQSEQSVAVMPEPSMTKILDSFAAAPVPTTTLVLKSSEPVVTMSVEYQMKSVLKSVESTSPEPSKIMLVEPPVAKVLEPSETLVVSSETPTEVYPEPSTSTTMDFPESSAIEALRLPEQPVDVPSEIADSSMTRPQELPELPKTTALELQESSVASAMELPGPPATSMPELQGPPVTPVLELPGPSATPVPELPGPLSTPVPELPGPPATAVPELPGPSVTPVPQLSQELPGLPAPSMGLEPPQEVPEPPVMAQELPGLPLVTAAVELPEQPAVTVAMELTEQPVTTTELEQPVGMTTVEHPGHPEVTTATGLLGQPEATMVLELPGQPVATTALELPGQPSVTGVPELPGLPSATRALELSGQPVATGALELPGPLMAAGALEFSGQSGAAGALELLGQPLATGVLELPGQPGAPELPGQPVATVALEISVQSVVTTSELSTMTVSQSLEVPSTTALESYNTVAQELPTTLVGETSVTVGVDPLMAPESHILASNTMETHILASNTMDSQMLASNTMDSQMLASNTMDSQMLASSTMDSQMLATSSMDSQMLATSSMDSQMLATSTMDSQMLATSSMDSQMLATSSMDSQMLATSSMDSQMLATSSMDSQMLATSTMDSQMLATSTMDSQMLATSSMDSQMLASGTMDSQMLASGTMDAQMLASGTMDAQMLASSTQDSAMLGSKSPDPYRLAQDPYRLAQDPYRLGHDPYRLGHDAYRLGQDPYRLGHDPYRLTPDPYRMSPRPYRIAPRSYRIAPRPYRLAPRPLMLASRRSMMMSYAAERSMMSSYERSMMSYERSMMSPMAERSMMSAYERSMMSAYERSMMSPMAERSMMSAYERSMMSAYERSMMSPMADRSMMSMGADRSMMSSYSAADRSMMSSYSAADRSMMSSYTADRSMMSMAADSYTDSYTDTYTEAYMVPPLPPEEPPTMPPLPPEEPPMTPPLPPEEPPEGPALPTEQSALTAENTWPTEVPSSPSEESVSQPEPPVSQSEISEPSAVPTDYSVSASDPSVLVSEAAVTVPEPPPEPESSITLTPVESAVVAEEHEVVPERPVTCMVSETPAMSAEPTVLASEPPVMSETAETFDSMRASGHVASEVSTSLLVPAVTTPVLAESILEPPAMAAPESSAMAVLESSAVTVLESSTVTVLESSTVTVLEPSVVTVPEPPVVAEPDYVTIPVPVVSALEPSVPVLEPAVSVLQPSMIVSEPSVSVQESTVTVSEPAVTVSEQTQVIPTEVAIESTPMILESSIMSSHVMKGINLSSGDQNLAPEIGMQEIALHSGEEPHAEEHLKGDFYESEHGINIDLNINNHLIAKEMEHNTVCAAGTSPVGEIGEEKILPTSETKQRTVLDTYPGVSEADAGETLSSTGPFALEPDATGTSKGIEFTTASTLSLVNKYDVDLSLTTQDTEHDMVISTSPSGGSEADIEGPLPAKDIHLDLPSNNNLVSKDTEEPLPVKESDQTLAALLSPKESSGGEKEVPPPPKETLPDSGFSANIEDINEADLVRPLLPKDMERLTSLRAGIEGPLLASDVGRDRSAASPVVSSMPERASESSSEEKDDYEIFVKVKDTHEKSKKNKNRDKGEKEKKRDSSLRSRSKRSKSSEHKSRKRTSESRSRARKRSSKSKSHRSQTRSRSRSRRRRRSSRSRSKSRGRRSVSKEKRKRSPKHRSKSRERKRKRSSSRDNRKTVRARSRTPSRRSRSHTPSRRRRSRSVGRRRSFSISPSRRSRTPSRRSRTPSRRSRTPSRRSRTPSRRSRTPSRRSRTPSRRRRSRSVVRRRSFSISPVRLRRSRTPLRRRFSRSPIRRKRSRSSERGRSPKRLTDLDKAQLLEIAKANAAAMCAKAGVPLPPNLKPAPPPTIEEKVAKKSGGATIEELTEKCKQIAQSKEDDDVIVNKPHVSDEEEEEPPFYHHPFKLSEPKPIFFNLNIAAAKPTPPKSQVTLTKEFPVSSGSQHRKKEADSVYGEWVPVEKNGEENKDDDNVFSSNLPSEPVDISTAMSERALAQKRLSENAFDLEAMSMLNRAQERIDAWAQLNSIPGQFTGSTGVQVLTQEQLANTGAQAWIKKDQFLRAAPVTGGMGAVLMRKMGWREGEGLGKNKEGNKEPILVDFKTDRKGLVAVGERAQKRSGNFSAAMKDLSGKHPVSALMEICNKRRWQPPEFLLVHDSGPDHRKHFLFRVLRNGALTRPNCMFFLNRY
UniProt P49674: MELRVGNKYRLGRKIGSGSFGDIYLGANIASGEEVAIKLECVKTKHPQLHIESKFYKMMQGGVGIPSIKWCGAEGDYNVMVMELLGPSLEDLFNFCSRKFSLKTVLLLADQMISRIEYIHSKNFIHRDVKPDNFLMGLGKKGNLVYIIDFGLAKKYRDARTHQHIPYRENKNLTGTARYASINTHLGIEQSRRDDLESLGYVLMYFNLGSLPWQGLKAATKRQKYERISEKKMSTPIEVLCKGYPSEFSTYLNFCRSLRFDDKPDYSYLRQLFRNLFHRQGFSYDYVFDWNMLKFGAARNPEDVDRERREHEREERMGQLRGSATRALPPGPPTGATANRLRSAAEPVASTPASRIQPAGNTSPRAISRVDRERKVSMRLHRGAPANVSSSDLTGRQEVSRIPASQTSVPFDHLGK

Legend:
FAM83H-FLAG = target: T1, FAM83H-FLAG (UniProt Q6ZRV2); experiment: affinity purification with mass spectrometry; RKO cells transfected with FAM83H-FLAG, FAM83H-S287X-FLAG or no insert; lysate in PBS with 1% NP40; anti-FLAG antibody cross-linked to Protein G Dynabeads; in-gel digestion, LC-MS/MS; ranked by number of assigned spectra (Table S1)
T1 sequence: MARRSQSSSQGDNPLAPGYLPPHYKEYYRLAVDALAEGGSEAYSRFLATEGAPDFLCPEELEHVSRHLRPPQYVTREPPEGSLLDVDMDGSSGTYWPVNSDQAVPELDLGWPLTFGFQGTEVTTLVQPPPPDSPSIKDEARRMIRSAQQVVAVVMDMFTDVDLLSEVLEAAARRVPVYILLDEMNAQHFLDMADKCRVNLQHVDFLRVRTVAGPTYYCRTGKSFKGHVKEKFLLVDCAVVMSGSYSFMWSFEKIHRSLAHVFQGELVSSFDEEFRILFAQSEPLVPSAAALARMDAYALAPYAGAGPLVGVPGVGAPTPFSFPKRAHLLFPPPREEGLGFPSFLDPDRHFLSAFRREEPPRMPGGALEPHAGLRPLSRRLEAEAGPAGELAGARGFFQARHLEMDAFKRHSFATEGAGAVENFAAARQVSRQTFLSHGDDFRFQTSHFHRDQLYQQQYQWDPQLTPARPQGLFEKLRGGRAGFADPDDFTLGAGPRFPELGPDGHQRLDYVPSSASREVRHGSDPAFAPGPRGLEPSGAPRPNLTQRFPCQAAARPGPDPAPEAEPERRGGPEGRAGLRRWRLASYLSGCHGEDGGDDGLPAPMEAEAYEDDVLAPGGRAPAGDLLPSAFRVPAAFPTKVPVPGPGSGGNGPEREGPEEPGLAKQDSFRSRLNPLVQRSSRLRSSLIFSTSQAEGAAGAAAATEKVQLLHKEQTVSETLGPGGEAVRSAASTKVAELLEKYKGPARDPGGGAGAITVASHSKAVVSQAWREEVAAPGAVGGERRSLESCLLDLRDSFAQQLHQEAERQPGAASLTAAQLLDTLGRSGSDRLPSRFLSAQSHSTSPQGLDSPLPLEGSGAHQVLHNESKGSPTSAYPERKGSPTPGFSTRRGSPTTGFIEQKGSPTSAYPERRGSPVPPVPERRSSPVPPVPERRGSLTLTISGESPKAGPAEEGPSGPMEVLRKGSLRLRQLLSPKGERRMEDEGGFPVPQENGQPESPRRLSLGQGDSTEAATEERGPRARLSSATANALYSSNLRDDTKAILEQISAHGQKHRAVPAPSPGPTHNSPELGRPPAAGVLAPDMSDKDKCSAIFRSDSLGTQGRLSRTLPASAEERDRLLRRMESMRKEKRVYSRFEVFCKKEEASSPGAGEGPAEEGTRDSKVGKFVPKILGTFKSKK

FAM83H-S287X-FLAG = target: T2, FAM83H-S287X-FLAG (UniProt Q6ZRV2); experiment: as above
T2 sequence: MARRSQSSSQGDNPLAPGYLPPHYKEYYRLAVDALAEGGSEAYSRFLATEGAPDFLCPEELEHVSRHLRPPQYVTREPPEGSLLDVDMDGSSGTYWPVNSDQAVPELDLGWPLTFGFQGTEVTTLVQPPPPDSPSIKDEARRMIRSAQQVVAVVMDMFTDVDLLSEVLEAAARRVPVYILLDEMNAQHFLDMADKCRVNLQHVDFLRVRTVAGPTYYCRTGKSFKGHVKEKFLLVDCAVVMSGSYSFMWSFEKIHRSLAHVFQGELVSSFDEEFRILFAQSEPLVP

SON (from UniProt P18583 1-2426)
binding (FAM83H-FLAG): binds

casein kinase 1ε (from UniProt P49674 1-416) (enzyme)
binding (FAM83H-S287X-FLAG): binds

B1: protein unc-45 homolog A (protein, UniProt Q9H3U1 1-944)
chain: MTVSGPGTPEPRPATPGASSVEQLRKEGNELFKCGDYGGALAAYTQALGLDATPQDQAVLHRNRAACHLKLEDYDKAETEASKAIEKDGGDVKALYRRSQALEKLGRLDQAVLDLQRCVSLEPKNKVFQEALRNIGGQIQEKVRYMSSTDAKVEQMFQILLDPEEKGTEKKQKASQNLVVLAREDAGAEKIFRSNGVQLLQRLLDMGETDLMLAALRTLVGICSEHQSRTVATLSILGTRRVVSILGVESQAVSLAACHLLQVMFDALKEGVKKGFRGKEGAIIVDPARELKVLISNLLDLLTEVGVSGQGRDNALTLLIKAVPRKSLKDPNNSLTLWVIDQGLKKILEVGGSLQDPPGELAVTANSRMSASILLSKLFDDLKCDAERENFHRLCENYIKSWFEGQGLAGKLRAIQTVSCLLQGPCDAGNRALELSGVMESVIALCASEQEEEQLVAVEALIHAAGKAKRASFITANGVSLLKDLYKCSEKDSIRIRALVGLCKLGSAGGTDFSMKQFAEGSTLKLAKQCRKWLCNDQIDAGTRRWAVEGLAYLTFDADVKEEFVEDAAALKALFQLSRLEERSVLFAVASALVNCTNSYDYEEPDPKMVELAKYAKQHVPEQHPKDKPSFVRARVKKLLAAGVVSAMVCMVKTESPVLTSSCRELLSRVFLALVEEVEDRGTVVAQGGGRALIPLALEGTDVGQTKAAQALAKLTITSNPEMTFPGERIYEVVRPLVSLLHLNCSGLQNFEALMALTNLAGISERLRQKILKEKAVPMIEGYMFEEHEMIRRAATECMCNLAMSKEVQDLFEAQGNDRLKLLVLYSGEDDELLQRAAAGGLAMLTSMRPTLCSRIPQVTTHWLEILQALLLSSNQELQHRGAVVVLNMVEASREIASTLMESEMMEILSVLAKGDHSPVTRAAAACLDKAVEYGLIQPNQDGE
binding (FAM83H-FLAG): binds

B2: hnRNP M (protein, UniProt P52272 1-730)
chain: MAAGVEAAAEVAATEIKMEEESGAPGVPSGNGAPGPKGEGERPAQNEKRKEKNIKRGGNRFEPYANPTKRYRAFITNIPFDVKWQSLKDLVKEKVGEVTYVELLMDAEGKSRGCAVVEFKMEESMKKAAEVLNKHSLSGRPLKVKEDPDGEHARRAMQKVMATTGGMGMGPGGPGMITIPPSILNNPNIPNEIIHALQAGRLGSTVFVANLDYKVGWKKLKEVFSMAGVVVRADILEDKDGKSRGIGTVTFEQSIEAVQAISMFNGQLLFDRPMHVKMDERALPKGDFFPPERPQQLPHGLGGIGMGLGPGGQPIDANHLNKGIGMGNIGPAGMGMEGIGFGINKMGGMEGPFGGGMENMGRFGSGMNMGRINEILSNALKRGEIIAKQGGGGGGGSVPGIERMGPGIDRLGGAGMERMGAGLGHGMDRVGSEIERMGLVMDRMGSVERMGSGIERMGPLGLDHMASSIERMGQTMERIGSGVERMGAGMGFGLERMAAPIDRVGQTIERMGSGVERMGPAIERMGLSMERMVPAGMGAGLERMGPVMDRMATGLERMGANNLERMGLERMGANSLERMGLERMGANSLERMGPAMGPALGAGIERMGLAMGGGGGASFDRAIEMERGNFGGSFAGSFGGAGGHAPGVARKACQIFVRNLPFDFTWKMLKDKFNECGHVLYADIKMENGKSKGCGVVKFESPEVAERACRMMNGMKLSGREIDVRIDRNA
binding (FAM83H-FLAG): binds
